Data reported in the supplement of paper PMC11732987, “Enantioselective OTUD7B fragment discovery through chemoproteomics screening and high-throughput optimisation” (Communications Chemistry, 2025).
The list shows a part of the results. The data scatter; read single values as rough.

By UniProt entry, the sequences of proteins in these tests, tags left out. Where a name states a change or a piece, a line headed by the entry shows the natural chain unless it says otherwise. Residues count along the entry.
UniProt Q5TAX3, 776-804: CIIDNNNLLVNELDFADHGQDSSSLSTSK
UniProt Q5TAX3, 1226-1245: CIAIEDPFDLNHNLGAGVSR
UniProt O94941: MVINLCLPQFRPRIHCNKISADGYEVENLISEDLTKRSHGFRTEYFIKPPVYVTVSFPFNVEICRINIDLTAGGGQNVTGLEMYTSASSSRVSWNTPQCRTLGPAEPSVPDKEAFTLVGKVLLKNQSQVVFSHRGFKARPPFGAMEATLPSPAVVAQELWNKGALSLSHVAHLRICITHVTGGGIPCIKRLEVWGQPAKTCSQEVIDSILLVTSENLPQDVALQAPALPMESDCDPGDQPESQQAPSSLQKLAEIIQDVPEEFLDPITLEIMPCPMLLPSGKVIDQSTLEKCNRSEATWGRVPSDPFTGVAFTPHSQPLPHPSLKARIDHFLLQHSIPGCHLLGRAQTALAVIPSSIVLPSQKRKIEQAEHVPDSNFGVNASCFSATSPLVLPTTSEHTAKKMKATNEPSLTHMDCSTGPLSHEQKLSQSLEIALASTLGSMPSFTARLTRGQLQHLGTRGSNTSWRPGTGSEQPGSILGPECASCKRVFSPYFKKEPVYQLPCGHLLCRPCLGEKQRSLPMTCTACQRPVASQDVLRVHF
UniProt O14562, 2-51: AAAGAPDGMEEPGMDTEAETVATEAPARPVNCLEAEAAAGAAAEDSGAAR
UniProt Q92574: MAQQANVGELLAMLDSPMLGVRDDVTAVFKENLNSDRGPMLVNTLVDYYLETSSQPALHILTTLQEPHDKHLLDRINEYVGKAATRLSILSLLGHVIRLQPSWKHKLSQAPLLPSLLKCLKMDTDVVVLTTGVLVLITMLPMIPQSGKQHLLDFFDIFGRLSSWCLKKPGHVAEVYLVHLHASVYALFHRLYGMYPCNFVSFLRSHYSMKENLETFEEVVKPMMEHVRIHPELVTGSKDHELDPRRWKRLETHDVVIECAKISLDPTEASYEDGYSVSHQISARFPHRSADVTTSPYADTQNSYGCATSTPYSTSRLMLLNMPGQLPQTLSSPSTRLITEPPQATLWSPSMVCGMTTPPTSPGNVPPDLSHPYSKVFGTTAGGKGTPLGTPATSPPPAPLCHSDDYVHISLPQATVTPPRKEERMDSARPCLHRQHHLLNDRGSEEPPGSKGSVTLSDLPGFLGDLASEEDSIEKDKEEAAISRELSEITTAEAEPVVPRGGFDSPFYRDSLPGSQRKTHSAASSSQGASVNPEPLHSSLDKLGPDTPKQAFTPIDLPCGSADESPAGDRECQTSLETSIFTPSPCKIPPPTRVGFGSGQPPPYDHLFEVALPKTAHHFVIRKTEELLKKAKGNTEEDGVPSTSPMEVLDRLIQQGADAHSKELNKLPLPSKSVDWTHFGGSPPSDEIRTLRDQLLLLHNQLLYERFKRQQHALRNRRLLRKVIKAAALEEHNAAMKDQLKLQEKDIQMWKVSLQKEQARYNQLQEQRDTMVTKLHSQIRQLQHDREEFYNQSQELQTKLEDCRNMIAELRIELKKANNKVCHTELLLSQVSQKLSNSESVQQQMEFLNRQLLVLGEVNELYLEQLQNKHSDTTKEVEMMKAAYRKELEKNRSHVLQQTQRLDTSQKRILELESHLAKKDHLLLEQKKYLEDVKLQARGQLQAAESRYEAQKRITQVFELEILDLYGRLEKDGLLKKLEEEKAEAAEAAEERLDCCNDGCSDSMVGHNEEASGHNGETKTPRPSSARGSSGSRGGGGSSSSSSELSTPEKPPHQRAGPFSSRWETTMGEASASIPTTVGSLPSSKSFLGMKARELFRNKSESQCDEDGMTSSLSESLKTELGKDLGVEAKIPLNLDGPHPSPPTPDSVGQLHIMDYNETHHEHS
UniProt Q96RT7, whole entry, looked up: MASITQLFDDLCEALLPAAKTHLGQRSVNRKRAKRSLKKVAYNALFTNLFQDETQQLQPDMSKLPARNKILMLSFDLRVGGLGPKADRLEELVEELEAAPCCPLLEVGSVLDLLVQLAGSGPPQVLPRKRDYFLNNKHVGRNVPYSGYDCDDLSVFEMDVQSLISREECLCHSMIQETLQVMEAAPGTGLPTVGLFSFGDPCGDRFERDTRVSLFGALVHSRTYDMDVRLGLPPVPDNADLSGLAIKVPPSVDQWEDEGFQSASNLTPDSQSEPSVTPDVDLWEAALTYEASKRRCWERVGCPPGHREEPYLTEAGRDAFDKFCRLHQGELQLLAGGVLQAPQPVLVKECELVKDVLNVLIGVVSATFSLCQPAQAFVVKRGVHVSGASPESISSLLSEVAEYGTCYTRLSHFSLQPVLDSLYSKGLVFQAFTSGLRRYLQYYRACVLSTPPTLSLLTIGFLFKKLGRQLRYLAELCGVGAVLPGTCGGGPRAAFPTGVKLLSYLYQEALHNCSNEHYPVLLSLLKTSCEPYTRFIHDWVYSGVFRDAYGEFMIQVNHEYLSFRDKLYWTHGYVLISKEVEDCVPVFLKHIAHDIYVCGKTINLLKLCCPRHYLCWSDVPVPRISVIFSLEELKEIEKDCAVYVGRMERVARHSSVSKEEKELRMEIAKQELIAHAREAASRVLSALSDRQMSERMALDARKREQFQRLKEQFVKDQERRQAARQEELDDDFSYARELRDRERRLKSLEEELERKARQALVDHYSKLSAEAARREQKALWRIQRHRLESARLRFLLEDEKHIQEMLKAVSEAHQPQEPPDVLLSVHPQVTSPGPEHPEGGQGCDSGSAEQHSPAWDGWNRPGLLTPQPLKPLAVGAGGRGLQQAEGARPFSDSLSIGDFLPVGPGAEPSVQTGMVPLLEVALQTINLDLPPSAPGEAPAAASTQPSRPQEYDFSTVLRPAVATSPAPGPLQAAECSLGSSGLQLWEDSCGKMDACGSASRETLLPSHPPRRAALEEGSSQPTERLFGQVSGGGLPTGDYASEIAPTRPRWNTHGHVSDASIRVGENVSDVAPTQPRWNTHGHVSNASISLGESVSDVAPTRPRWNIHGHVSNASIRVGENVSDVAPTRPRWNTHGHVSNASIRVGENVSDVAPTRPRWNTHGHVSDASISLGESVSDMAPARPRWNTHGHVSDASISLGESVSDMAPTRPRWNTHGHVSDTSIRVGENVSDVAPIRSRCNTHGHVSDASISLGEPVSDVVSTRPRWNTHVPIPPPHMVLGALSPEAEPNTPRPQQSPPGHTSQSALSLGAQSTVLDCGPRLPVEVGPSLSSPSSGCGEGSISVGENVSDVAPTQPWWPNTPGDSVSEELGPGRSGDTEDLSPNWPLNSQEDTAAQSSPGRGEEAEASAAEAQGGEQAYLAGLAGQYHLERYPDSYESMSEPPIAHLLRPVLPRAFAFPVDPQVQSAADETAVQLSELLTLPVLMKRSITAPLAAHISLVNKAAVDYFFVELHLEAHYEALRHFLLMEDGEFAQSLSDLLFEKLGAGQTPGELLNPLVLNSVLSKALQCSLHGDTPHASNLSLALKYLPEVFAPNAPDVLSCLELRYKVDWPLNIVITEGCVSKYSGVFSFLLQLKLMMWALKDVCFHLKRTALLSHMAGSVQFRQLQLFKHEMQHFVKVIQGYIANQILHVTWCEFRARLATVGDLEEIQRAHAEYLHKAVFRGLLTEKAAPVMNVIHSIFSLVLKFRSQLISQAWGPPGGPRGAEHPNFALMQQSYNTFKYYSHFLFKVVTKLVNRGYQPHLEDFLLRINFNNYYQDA
UniProt Q5VYS8: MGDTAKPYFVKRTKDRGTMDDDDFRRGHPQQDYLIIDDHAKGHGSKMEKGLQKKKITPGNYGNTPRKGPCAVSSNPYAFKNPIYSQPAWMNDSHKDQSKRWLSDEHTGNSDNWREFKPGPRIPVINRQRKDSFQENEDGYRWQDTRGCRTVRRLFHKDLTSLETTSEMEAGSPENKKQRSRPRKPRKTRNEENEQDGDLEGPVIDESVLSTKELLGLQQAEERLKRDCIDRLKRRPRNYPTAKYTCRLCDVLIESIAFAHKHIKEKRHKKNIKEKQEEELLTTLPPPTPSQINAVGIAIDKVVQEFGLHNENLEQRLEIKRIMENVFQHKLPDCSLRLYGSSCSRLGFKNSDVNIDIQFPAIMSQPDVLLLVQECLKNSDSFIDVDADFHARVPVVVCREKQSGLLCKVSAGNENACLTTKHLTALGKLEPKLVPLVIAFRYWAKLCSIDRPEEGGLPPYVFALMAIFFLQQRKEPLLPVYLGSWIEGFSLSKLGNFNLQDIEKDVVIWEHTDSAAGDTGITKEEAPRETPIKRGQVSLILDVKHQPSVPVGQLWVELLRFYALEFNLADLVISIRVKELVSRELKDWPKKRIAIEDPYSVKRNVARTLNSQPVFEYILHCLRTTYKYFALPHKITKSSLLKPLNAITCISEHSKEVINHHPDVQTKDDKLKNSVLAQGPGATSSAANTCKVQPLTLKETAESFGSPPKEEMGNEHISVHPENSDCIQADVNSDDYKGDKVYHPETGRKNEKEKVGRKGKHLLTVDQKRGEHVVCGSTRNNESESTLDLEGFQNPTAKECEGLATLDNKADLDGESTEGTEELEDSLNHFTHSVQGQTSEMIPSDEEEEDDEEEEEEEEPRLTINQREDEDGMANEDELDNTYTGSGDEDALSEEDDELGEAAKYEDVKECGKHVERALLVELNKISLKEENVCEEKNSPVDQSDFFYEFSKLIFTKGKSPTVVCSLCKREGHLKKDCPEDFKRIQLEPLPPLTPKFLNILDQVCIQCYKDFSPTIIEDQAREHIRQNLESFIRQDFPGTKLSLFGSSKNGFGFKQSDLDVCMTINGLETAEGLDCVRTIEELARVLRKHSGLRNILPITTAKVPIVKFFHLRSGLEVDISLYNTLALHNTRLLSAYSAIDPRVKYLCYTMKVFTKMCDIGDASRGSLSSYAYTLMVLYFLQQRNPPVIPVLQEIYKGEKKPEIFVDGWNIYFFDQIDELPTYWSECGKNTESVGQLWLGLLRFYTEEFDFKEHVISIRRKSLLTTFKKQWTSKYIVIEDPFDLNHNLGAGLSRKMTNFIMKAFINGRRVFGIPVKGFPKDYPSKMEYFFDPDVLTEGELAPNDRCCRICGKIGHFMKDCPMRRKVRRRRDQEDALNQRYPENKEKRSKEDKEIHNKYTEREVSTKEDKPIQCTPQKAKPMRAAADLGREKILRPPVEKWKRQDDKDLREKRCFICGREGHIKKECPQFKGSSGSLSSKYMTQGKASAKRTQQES
UniProt Q9BZF9: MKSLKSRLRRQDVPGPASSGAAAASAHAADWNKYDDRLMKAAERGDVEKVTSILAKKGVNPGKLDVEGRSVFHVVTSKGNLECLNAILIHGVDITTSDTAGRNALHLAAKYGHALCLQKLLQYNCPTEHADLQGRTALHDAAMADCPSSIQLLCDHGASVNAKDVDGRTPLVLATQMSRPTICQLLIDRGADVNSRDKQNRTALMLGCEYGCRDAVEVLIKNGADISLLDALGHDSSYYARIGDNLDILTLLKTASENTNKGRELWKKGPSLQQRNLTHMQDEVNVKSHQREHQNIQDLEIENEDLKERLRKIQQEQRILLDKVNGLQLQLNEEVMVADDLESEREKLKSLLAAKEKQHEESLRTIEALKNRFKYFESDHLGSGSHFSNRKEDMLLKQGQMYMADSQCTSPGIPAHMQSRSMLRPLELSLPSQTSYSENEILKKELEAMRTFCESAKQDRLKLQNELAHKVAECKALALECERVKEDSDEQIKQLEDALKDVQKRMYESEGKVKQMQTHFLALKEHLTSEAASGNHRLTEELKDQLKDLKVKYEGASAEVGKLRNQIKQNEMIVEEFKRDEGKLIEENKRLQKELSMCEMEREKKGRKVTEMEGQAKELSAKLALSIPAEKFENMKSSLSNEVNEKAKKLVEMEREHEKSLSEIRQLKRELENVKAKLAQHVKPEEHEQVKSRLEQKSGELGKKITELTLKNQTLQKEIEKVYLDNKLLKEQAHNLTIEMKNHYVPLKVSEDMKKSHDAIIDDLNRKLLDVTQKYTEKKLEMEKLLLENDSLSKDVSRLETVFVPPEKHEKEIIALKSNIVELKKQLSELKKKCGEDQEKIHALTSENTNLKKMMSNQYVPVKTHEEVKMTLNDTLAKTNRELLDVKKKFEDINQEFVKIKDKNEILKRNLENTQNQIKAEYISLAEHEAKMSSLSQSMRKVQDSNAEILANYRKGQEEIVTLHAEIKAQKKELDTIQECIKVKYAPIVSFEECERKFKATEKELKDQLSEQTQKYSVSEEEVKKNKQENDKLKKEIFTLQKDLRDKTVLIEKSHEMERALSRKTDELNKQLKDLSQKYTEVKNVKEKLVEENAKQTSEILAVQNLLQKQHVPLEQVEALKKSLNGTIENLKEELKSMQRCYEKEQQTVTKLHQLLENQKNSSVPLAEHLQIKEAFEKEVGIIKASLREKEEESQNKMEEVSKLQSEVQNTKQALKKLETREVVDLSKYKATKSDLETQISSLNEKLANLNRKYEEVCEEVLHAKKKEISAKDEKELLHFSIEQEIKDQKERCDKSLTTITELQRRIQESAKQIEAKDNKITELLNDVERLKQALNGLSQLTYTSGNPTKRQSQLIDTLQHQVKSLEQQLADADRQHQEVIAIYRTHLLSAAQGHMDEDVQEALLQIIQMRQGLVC

Assays:
[1] = compound: ClCC(=O)N[C@@H]1CCCc2ccccc12; test: log2 mean competition ratio of IA-DTB cysteine labelling (DMSO/compound) (log2 ratio); higher = stronger cysteine engagement by compound; details: treatment time: 4 h, cell line lysate: HEK293T
Method: (§1)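 IA-DTB competitive cysteine chemoproteomics in HEK293T RIPA lysate. Lysates were treated with compound 29 or 30 at 50 or 200 µM for 4 h, then IA-DTB (500 µM, 1 h), trypsin-digested, NeutrAvidin-enriched and analysed by diaPASEF. Competition ratio = intensity DMSO / intensity compound (n=4 treated, n=64 DMSO); binding: mean log2 CR ≥ 1 and p ≤ 0.05 plus QC filters. Target is the cysteine site.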

[2] = compound: ClCC(=O)N[C@H]1CCCc2ccccc12; test: as above; details: treatment time: 4 h, cell line lysate: HEK293T
Method: as §1

Target	log2 mean competition ratio ([1]; 50 µM)	log2 mean competition ratio ([1]; 200 µM)	log2 mean competition ratio ([2]; 200 µM)	log2 mean competition ratio ([2]; 50 µM)
TUT4 C776 (UniProt Q5TAX3)	-0.331	-0.763	-0.691	
UBOX5 C99 (UniProt O94941)	-0.0834	-0.0121	0.126	0.0472
UBFD1 C33 (UniProt O14562)	-0.507	-0.213	-0.356	0.156
TUBB8B C12 (UniProt A6NNZ2)	0.348	-0.0718	-0.0883	-0.164
TRPM7 C1411 (UniProt Q96QT4)	0.0785	0.241	0.255	0.319
TUT4 C928 (UniProt Q5TAX3)	-0.0991	0.0404	-0.11	-0.0835
UBR4 C3414 (UniProt Q5T4S7)	0.134	-0.113	-0.0604	-0.0952
TSC1 C822 (UniProt Q92574)	0.582	0.299	0.0353	0.102
TUBGCP6 C995 (UniProt Q96RT7)	-0.0189	0.495	0.0873	-0.178
TRPT1 C147 (UniProt Q86TN4)	-0.025	0.142	0.0544	-0.0145
UBN1 C548 (UniProt Q9NPG3)	-0.0428	-0.162	-0.0197	-0.138
TUT7 C934 (UniProt Q5VYS8)	-0.212	0.0207	-0.0688	-0.287
TUT4 C1226 (UniProt Q5TAX3)	-0.105	0.73	0.0705	-0.494
UBR4 C2234 (UniProt Q5T4S7)	-0.365	-0.0889	-0.141	0.0365
UBN1 C765 (UniProt Q9NPG3)	-0.145	-0.0557	0.0114	0.0639
UACA C453 (UniProt Q9BZF9)	-0.00873	-0.191	0.0192	-0.178

Limited to log2 mean competition ratio ([1]; 200 µM), log2 mean competition ratio ([1]; 50 µM) and log2 mean competition ratio ([2]; 200 µM) (2 entries from above):
Target | log2 mean competition ratio ([1]; 200 µM) | log2 mean competition ratio ([1]; 50 µM) | log2 mean competition ratio ([2]; 200 µM)
UBFD1 C33 (UniProt O14562) | -0.213 | -0.507 | -0.356
TUBB8B C12 (UniProt A6NNZ2) | -0.0718 | 0.348 | -0.0883
